PubChem BioAssay AID1224830 | NIAID, 2016
Assay: 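Host factors that control LPS-induced TNF expression in human macrophages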 (primary screen). Cell system: human THP-1 monocytic leukaemia cells, TNF dual-luciferase reporter clone, PMA-differentiated to macrophage-like cells. Reagents: siRNA pool against human genes, 50 nM. Time to read-out: LPS for 4 h, given about 3 days after siRNA transfection. Treatment: bacterial LPS (TLR4 ligand), 10 ng/ml. Detection: 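TNF firefly reporter luminescence divided by renilla, normalised to the plate median, then turned into a robust z-score for each replicate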. Direction: TNF reporter robust z-score: higher = stronger TNF reporter response to LPS. Rule for the call: 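Each well counts as active if its z-score is over 2.8 or under -1.5; controls are left without a call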.
The whole screen tested about 18,000 reagents; below is a random part of them. Of all reagents, about 2,900 (16%) got an active call. 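Calls are made per well; low scores hint the gene aids the LPS response, high scores that it dampens it.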 Repeated entries: four replicate wells of each siRNA pool. No sequences are given here.

The opening 9 entries, ahead of the listing:
gene | PubChem SID | TNF reporter robust z-score | activity call
MGAT1 | SID315449957 | -1.64 | active
MGAT1 | SID315449957 | -1.02 | inactive
MGAT1 | SID315449957 | -0.89 | inactive
MGAT1 | SID315449957 | -0.39 | inactive
SPATA21 | SID315464347 | -0.34 | inactive
SPATA21 | SID315464347 | -0.04 | inactive
SPATA21 | SID315464347 | 0 | inactive
SPATA21 | SID315464347 | 0.31 | inactive
LEFTY1 | SID315454257 | 1.5 | inactive

The listing, from the start:
gene | PubChem SID | TNF reporter robust z-score | activity call
MGAT1 | SID315449957 | -1.64 | active
MGAT1 | SID315449957 | -1.02 | inactive
MGAT1 | SID315449957 | -0.89 | inactive
MGAT1 | SID315449957 | -0.39 | inactive
SPATA21 | SID315464347 | -0.34 | inactive
SPATA21 | SID315464347 | -0.04 | inactive
SPATA21 | SID315464347 | 0 | inactive
SPATA21 | SID315464347 | 0.31 | inactive
LEFTY1 | SID315454257 | 1.5 | inactive
LEFTY1 | SID315454257 | -1.13 | inactive
LEFTY1 | SID315454257 | -0.42 | inactive
LEFTY1 | SID315454257 | -0.75 | inactive
LRRC8B | SID315455285 | -1.11 | inactive
LRRC8B | SID315455285 | -1.41 | inactive
LRRC8B | SID315455285 | -0.29 | inactive
LRRC8B | SID315455285 | -1.19 | inactive
ACBD6 | SID315460329 | -0.39 | inactive
ACBD6 | SID315460329 | -0.55 | inactive
ACBD6 | SID315460329 | -0.56 | inactive
TRIM26 | SID315452263 | -0.99 | inactive
TRIM26 | SID315452263 | 0.99 | inactive
TRIM26 | SID315452263 | 0.67 | inactive
TRIM26 | SID315452263 | 0.18 | inactive
ADCY3 | SID315447187 | 2.58 | inactive
ADCY3 | SID315447187 | 0.37 | inactive
ADCY3 | SID315447187 | 1.65 | inactive
ADCY3 | SID315447187 | 1.31 | inactive
CCAR2 | SID315458593 | 0.01 | inactive
CCAR2 | SID315458593 | 0.61 | inactive
CCAR2 | SID315458593 | 0.14 | inactive
CCAR2 | SID315458593 | 0.05 | inactive
LRP6 | SID315449805 | 1.42 | inactive
LRP6 | SID315449805 | 1.17 | inactive
LRP6 | SID315449805 | 1.78 | inactive
LRP6 | SID315449805 | 2.18 | inactive
DCAF15 | SID315460816 | 0.76 | inactive
DCAF15 | SID315460816 | 2.3 | inactive
DCAF15 | SID315460816 | 1.35 | inactive
DCAF15 | SID315460816 | 0.32 | inactive
SPCS3 | SID315458725 | 0.71 | inactive
SPCS3 | SID315458725 | 0.61 | inactive
SPCS3 | SID315458725 | 1.37 | inactive
SPCS3 | SID315458725 | 2.78 | inactive
ANKRD36 | SID315464358 | 2.99 | active
ANKRD36 | SID315464358 | -0.37 | inactive
ANKRD36 | SID315464358 | -0.2 | inactive
ANKRD36 | SID315464358 | -0.45 | inactive
SERPINB7 | SID315452763 | 0.75 | inactive
SERPINB7 | SID315452763 | 1.75 | inactive
SERPINB7 | SID315452763 | 0.94 | inactive
SERPINB7 | SID315452763 | 0.89 | inactive
NSA2 | SID315454067 | -0.13 | inactive
NSA2 | SID315454067 | -0.67 | inactive
NSA2 | SID315454067 | -0.33 | inactive
NSA2 | SID315454067 | 0.1 | inactive
PFN2 | SID315450539 | 0.21 | inactive
PFN2 | SID315450539 | 2.19 | inactive
PFN2 | SID315450539 | 0.12 | inactive
PFN2 | SID315450539 | 0.11 | inactive
SPA17 | SID315456906 | -0.8 | inactive
SPA17 | SID315456906 | -0.63 | inactive
SPA17 | SID315456906 | 0.2 | inactive
SPA17 | SID315456906 | -0.2 | inactive
ESR1 | SID315448565 | 1.26 | inactive
ESR1 | SID315448565 | 2.34 | inactive
ESR1 | SID315448565 | 1.01 | inactive
ESR1 | SID315448565 | 3.73 | active
PDLIM7 | SID315453160 | -0.28 | inactive
PDLIM7 | SID315453160 | -0.79 | inactive
PDLIM7 | SID315453160 | -1.27 | inactive
PDLIM7 | SID315453160 | -1.57 | active
PCDHB15 | SID315458002 | -0.53 | inactive
PCDHB15 | SID315458002 | 0.08 | inactive
PCDHB15 | SID315458002 | 0.2 | inactive
PCDHB15 | SID315458002 | 0.01 | inactive
EXOC8 | SID315462410 | -0.41 | inactive
EXOC8 | SID315462410 | 0.14 | inactive
EXOC8 | SID315462410 | -0.24 | inactive
EXOC8 | SID315462410 | 0.09 | inactive
CDK18 | SID315450464 | 0.36 | inactive
CDK18 | SID315450464 | -0.64 | inactive
CDK18 | SID315450464 | 0.27 | inactive
CDK18 | SID315450464 | 0.46 | inactive
GPAA1 | SID315452782 | -0.32 | inactive
GPAA1 | SID315452782 | 0.32 | inactive
GPAA1 | SID315452782 | 0.43 | inactive
GPAA1 | SID315452782 | 0.81 | inactive
BICRAL | SID315455284 | 1.74 | inactive
BICRAL | SID315455284 | 0.55 | inactive
BICRAL | SID315455284 | 2.01 | inactive
BICRAL | SID315455284 | 1.41 | inactive
IL2RG | SID315449458 | 0.39 | inactive
IL2RG | SID315449458 | 0.98 | inactive
IL2RG | SID315449458 | 1.53 | inactive
IL2RG | SID315449458 | 1.1 | inactive
P2RX6 | SID315453064 | 0.37 | inactive
P2RX6 | SID315453064 | 0.71 | inactive
P2RX6 | SID315453064 | 0 | inactive
P2RX6 | SID315453064 | 1.49 | inactive
CEACAM16 | SID315464493 | 3.58 | active
CEACAM16 | SID315464493 | 3.26 | active
CEACAM16 | SID315464493 | 0.09 | inactive
CEACAM16 | SID315464493 | 0.48 | inactive
MS4A13 | SID315465016 | -1.31 | inactive
MS4A13 | SID315465016 | -0.95 | inactive
MS4A13 | SID315465016 | -0.62 | inactive
MS4A13 | SID315465016 | 0.49 | inactive
ING5 | SID315460301 | -0.62 | inactive
ING5 | SID315460301 | -0.2 | inactive
ING5 | SID315460301 | -0.39 | inactive
ING5 | SID315460301 | -0.13 | inactive
